Experiment: general procedure: Boc solid-phase peptide synthesis; benzhydrylamine (BHA) resin; symmetric anhydride procedure
Settings: whole synthesis, scale of the general procedure 1.0 mmol, 0.7 mmol

Substance | isolated yield [%]
HTLV-III env Cys-(500-511)-NH2 | 13
HTLV-III env (487-511)-Cys-NH2 | 12

From US4772547 (dated 1988)
